Here are results for 2 molecules from article PMC3954832.

Results are given in words; binding and its absence hold for the method and conditions named. Binding seen in cells or lysates may run through a third protein. Binding can be weak; no strength is given. For part of these data: Tags and fused reporters may be left off the sequences shown.

One experiment has as its target T1, Flag-CENP-B (human) (UniProt P07199).
T1 sequence: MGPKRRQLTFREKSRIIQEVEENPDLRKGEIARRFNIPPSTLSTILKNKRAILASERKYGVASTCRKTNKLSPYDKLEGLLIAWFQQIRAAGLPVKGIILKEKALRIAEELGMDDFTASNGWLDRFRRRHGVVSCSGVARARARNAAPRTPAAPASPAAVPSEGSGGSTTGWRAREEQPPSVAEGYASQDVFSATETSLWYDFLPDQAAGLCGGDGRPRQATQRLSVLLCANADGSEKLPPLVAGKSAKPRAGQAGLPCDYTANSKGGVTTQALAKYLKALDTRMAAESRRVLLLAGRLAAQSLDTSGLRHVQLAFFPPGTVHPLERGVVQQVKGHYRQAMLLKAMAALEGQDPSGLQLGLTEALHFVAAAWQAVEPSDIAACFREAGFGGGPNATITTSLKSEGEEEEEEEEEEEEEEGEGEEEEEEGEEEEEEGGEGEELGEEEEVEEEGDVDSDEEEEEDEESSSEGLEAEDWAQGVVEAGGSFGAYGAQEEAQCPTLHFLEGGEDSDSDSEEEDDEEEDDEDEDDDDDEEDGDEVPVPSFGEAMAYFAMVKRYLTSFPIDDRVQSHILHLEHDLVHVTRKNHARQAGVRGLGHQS
As to the kind of experiment: co-IP; HeLa cells transfected transiently for 24 h, lysed in RIPA buffer (50 mM Tris pH 7.5, 150 mM NaCl, 1 mM EDTA, 0.25% sodium deoxycholate, 1% NP-40); anti-Flag overnight at 4 °C, Protein A/G plus-Sepharose; Western blot; control IgG.

Another experiment deals with His-INMAP. As to the kind of experiment: pull-down; Ni2+ beads with His-INMAP incubated with HeLa cell extract for 2 h, washed, eluted by boiling; Western blot with anti-CENP-B; control with empty beads; only the target purified.
A further experiment has as its target Flag-INMAP. Nature of the experiment: co-IP; HeLa cells transfected transiently for 24 h, lysed in RIPA buffer (50 mM Tris pH 7.5, 150 mM NaCl, 1 mM EDTA, 0.25% sodium deoxycholate, 1% NP-40); anti-Flag overnight at 4 °C, Protein A/G plus-Sepharose; Western blot; control IgG.

Regarding INMAP (human (endogenous in HeLa)), the binding entry with Flag-CENP-B (human) was “binds”.

B1: CENP-B (protein, UniProt P07199 1-599)
chain: MGPKRRQLTFREKSRIIQEVEENPDLRKGEIARRFNIPPSTLSTILKNKRAILASERKYGVASTCRKTNKLSPYDKLEGLLIAWFQQIRAAGLPVKGIILKEKALRIAEELGMDDFTASNGWLDRFRRRHGVVSCSGVARARARNAAPRTPAAPASPAAVPSEGSGGSTTGWRAREEQPPSVAEGYASQDVFSATETSLWYDFLPDQAAGLCGGDGRPRQATQRLSVLLCANADGSEKLPPLVAGKSAKPRAGQAGLPCDYTANSKGGVTTQALAKYLKALDTRMAAESRRVLLLAGRLAAQSLDTSGLRHVQLAFFPPGTVHPLERGVVQQVKGHYRQAMLLKAMAALEGQDPSGLQLGLTEALHFVAAAWQAVEPSDIAACFREAGFGGGPNATITTSLKSEGEEEEEEEEEEEEEEGEGEEEEEEGEEEEEEGGEGEELGEEEEVEEEGDVDSDEEEEEDEESSSEGLEAEDWAQGVVEAGGSFGAYGAQEEAQCPTLHFLEGGEDSDSDSEEEDDEEEDDEDEDDDDDEEDGDEVPVPSFGEAMAYFAMVKRYLTSFPIDDRVQSHILHLEHDLVHVTRKNHARQAGVRGLGHQS
In the case of B1, the binding entry with His-INMAP and with Flag-INMAP was “binds” throughout.
